Assay [1] concerns the target TbTTC29Ty1 (Tb927.3.1990) (Trypanosoma brucei) (UniProt Q57ZB2). Kind of assay: affinity purification with mass spectrometry; 1.8 x 10^9 T. brucei cells, IP buffer without DTT, anti-HA and anti-Ty1 IPs on Protein-G Dynabeads; nanoLC-MS/MS, label-free quantification, enrichment fold >=2.
The target in assay [2] is TbTAX-1HA (T. brucei ortholog of ZMYND12, Tb927.9.10370) (Trypanosoma brucei) (UniProt Q38DX5). Described as above.
Assay [3] concerns the target T1, TTC29 (mouse testis) (mouse (endogenous in testis)) (UniProt Q80VM3).
T1 sequence: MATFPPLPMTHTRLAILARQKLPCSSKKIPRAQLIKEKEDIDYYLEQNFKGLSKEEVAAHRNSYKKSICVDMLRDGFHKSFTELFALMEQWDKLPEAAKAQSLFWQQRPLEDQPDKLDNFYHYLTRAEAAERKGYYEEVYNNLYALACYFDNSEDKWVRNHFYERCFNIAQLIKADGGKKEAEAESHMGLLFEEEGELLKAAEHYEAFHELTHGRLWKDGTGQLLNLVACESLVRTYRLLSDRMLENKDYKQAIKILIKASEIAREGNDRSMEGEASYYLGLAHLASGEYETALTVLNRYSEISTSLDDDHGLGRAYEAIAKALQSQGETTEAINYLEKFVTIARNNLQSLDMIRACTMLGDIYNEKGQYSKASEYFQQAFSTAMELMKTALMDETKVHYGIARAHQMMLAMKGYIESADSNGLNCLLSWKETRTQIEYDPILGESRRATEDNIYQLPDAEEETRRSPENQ
In words: affinity purification with mass spectrometry; testis lysates of WT and Ttc29-/- L5 and L7 mice (50 mM Tris-HCl pH 8, 150 mM NaCl, 10 mM MgCl2, 0.5% NP40); rabbit polyclonal TTC29 antibody, Protein A/G magnetic beads; four replicates for each genotype; MS/MS.

By UniProt entry, the sequences of proteins in these tests, tags left out. Where a name states a change or a piece, a line headed by the entry shows the natural chain unless it says otherwise.
UniProt Q57ZB2: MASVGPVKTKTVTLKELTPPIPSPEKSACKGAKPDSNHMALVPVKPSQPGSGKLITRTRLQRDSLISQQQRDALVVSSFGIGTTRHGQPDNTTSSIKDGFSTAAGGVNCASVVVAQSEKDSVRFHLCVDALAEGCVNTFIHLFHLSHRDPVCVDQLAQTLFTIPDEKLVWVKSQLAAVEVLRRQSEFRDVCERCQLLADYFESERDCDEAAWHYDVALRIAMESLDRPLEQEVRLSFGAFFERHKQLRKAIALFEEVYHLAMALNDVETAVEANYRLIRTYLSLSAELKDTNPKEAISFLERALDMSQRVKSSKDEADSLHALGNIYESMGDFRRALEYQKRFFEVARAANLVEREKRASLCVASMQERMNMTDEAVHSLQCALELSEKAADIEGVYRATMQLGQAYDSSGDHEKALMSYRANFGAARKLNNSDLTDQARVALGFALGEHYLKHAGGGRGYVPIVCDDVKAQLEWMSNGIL
UniProt Q38DX5: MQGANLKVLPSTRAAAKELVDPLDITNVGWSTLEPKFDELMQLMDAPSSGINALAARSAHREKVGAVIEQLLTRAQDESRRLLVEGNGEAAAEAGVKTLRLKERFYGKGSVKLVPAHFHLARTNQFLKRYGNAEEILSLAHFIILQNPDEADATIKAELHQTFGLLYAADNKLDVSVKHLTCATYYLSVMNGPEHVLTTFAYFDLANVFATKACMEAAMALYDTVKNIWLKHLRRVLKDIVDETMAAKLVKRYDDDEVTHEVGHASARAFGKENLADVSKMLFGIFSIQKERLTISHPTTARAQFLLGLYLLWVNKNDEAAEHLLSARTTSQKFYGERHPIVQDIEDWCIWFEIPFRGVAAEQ
UniProt Q386C6: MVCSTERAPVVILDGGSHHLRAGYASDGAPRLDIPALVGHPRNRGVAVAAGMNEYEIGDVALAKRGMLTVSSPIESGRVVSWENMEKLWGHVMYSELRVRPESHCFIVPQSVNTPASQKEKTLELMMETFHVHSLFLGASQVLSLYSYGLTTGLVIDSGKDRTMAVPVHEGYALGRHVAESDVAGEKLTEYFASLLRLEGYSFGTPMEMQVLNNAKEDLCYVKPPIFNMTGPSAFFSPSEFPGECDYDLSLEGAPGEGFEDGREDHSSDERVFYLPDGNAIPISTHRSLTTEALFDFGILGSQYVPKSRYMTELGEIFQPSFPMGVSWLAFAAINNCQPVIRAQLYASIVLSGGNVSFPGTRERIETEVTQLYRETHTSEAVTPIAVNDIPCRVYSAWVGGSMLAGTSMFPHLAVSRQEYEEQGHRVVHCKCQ
UniProt E9Q8T7: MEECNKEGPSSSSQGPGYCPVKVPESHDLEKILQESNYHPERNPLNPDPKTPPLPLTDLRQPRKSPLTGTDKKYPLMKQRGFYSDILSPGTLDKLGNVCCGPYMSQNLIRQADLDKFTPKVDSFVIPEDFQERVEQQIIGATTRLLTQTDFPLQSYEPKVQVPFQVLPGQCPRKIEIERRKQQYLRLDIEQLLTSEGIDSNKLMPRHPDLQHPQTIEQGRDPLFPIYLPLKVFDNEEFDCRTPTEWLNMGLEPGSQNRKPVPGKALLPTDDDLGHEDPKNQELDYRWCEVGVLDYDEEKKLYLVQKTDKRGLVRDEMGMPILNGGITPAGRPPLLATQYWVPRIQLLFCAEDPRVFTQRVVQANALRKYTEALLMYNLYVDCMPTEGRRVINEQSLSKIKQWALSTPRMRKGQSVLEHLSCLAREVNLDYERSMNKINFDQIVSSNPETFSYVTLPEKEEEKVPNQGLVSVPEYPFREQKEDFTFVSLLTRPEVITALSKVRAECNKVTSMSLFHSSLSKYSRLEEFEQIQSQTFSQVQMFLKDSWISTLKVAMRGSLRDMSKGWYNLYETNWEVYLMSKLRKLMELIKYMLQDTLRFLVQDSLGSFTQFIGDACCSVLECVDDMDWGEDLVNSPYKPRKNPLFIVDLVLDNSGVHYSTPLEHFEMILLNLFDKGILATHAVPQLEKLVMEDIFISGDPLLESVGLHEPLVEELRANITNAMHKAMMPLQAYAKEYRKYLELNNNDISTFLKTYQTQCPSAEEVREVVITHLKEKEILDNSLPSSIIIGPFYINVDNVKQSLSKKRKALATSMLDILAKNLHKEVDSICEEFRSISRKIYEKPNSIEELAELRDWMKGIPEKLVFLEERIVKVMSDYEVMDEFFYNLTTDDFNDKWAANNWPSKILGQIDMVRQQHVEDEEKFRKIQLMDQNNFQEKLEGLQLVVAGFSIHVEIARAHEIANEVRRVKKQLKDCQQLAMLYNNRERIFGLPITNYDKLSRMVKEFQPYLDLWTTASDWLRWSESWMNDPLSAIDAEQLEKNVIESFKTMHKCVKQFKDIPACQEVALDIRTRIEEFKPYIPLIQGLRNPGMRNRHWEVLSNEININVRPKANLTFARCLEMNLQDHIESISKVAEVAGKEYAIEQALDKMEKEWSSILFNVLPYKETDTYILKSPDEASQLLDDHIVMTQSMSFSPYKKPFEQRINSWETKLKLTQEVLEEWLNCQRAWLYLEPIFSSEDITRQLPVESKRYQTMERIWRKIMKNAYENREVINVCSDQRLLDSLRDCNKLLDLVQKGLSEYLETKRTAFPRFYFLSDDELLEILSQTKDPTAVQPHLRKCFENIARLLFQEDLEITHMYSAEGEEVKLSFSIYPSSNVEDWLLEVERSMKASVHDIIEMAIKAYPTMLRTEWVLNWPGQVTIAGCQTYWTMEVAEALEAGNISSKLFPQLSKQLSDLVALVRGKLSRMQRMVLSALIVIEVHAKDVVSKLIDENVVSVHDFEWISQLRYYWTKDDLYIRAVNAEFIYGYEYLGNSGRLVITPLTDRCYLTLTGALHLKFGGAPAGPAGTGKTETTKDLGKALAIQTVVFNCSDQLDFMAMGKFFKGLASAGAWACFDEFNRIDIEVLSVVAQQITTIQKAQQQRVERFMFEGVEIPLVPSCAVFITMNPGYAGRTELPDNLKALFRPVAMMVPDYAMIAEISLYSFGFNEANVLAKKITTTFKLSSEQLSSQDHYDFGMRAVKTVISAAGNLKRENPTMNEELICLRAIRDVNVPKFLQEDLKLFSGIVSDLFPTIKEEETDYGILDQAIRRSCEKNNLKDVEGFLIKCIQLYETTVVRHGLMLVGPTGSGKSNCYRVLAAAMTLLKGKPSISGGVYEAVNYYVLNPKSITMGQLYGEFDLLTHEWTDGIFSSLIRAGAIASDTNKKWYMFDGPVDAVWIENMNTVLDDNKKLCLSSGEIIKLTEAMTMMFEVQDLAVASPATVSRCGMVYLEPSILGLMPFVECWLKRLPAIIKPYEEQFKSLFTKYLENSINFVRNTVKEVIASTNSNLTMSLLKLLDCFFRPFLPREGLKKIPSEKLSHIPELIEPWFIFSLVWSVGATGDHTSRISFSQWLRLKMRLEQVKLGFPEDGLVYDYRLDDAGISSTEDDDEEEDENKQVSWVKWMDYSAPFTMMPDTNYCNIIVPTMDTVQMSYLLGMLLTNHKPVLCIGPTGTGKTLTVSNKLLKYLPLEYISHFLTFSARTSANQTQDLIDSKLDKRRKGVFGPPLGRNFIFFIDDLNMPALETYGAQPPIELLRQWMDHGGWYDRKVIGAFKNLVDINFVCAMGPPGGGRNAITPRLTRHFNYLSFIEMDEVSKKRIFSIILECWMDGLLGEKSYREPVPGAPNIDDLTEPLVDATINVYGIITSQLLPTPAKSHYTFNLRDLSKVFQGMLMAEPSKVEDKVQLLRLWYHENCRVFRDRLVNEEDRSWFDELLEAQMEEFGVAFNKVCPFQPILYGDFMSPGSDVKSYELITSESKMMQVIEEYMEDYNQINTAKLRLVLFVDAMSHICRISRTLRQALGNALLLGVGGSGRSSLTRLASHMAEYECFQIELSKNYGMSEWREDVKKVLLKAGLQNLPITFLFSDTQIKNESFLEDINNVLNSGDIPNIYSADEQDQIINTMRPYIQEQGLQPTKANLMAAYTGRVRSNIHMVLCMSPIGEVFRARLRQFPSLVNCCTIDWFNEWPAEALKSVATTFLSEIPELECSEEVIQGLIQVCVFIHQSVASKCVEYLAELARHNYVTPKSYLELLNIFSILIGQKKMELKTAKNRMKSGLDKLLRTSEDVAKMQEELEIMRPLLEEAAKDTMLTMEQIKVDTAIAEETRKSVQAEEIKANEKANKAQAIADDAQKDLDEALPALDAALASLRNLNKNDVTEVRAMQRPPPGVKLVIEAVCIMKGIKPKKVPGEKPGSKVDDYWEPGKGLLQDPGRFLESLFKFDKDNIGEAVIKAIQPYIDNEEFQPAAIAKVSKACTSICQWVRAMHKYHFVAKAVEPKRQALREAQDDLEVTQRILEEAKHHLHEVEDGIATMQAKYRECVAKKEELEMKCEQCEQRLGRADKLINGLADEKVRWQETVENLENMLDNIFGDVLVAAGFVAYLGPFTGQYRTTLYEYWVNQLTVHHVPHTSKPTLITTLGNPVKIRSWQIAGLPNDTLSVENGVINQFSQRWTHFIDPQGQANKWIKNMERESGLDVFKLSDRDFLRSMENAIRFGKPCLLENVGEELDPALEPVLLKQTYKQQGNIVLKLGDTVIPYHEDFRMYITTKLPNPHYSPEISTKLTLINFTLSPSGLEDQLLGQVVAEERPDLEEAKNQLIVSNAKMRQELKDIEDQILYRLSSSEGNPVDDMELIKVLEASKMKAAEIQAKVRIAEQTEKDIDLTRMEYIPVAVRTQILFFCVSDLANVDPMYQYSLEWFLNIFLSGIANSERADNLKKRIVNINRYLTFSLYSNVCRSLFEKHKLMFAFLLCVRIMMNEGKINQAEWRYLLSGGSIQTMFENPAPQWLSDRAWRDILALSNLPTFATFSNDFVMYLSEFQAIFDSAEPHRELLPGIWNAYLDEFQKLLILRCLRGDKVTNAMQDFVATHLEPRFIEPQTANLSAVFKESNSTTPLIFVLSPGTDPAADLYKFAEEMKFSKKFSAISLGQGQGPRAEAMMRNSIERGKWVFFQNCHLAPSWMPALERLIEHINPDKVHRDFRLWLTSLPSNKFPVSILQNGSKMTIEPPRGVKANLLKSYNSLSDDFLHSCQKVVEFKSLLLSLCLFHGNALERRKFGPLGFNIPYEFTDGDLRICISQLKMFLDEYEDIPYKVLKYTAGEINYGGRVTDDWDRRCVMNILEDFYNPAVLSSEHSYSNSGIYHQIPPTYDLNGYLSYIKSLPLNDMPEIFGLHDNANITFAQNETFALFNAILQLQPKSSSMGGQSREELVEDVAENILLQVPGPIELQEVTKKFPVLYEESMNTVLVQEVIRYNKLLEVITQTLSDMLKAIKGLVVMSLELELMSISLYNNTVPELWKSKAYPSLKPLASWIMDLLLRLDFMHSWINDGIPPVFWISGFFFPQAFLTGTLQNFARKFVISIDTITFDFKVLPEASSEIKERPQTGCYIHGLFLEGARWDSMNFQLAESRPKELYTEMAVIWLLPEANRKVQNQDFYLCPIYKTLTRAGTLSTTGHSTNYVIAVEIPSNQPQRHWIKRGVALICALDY

The values below come from article PMC10629824.

Results are given in words; binding and its absence hold for the method and conditions named. In cells and extracts the contact can be indirect. A yes stands for co-enrichment or nearness to the bait. Other partners may have been found.

“Tb927.11.3880, a flagellar actin-like protein (from UniProt Q386C6)”: the binding result in assay [1] and in assay [2] was “binds” throughout.
For the molecule “DNAH1 (mouse testis) (from UniProt E9Q8T7 1-4250)”, in assay [3], the binding entry is on record as “binds”.

B1: DNALI1 (mouse testis) (protein, UniProt Q8BVN8 1-258)
chain: MIPPADSLLKYDTPVLVSRNTEKRSPTARPLKVTIQQPGPSSTSPQPPKAKLPSTSCVPDPTKQAEEILNAILPPREWVEDTQLWIQQVSSTPSTRMDVVHLQEQLDLKLQQRQARETGICPVRRELYSQCFDELIREVTINCAERGLLLLRVRDEIHMTIAAYQTLYESSVAFGMRKALQAEQGKSDMERKITELETEKRDLERQVNEQKAKCEATEKRESERRQVEEKKHNEEIQFLKRTNQQLKAQLEGIIAPKK
With B1, the binding result in assay [3] is “binds”.
